Experimental data from the supplement of paper PMC10849652.
Some of the results follow.

Amino acid sequences for entries named in this document (tags omitted). A change or cut given only in a name is not applied to a line headed by its entry.
UniProt Q9ULG6: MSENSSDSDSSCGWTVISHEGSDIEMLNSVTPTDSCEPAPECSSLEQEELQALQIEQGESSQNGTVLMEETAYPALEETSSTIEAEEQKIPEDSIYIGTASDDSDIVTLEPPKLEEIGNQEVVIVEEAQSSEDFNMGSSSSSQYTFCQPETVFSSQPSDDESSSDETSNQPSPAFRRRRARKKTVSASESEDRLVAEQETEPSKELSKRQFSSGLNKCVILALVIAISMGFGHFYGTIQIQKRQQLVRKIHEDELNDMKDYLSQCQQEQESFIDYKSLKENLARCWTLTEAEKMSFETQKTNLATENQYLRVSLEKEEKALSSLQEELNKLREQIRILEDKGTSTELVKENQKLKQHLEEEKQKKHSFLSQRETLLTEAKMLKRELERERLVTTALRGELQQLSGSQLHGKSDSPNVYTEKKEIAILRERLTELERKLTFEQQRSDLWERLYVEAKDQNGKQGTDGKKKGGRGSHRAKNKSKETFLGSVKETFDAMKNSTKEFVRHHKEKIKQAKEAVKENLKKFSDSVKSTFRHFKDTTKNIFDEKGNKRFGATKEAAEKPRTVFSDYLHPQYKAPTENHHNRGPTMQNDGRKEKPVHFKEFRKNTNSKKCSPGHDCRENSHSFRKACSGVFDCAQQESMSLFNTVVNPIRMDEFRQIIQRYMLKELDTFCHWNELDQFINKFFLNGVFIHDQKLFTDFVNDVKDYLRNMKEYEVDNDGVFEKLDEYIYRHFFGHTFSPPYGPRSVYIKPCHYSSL
UniProt Q9H6E4: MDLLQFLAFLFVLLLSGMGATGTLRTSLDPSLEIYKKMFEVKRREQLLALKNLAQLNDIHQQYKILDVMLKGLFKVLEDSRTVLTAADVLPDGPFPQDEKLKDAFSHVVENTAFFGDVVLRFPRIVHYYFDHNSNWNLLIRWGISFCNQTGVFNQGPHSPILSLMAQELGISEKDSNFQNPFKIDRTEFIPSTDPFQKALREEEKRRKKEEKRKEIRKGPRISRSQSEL
UniProt Q9H6F5: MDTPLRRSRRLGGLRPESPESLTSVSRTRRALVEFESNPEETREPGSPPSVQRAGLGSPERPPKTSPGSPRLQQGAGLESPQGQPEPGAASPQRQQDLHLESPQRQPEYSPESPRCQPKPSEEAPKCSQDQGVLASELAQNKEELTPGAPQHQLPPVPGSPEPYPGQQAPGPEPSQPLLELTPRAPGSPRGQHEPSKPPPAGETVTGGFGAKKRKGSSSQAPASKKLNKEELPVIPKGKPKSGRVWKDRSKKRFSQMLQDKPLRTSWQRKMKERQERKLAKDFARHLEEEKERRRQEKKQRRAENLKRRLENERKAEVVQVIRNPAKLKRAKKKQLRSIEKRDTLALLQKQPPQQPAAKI
UniProt Q96CT7: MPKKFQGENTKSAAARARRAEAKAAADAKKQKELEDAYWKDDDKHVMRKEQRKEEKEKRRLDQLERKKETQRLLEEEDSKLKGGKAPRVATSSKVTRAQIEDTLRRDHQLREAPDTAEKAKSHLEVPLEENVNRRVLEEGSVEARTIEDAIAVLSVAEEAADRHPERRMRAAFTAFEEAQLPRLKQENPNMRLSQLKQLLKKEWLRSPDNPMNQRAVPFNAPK
UniProt Q15834: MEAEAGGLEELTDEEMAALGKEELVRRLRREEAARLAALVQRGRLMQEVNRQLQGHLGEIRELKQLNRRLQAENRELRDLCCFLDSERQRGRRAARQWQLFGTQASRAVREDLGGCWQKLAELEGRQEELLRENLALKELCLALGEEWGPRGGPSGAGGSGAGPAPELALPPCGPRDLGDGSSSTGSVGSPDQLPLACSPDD
UniProt Q96A19: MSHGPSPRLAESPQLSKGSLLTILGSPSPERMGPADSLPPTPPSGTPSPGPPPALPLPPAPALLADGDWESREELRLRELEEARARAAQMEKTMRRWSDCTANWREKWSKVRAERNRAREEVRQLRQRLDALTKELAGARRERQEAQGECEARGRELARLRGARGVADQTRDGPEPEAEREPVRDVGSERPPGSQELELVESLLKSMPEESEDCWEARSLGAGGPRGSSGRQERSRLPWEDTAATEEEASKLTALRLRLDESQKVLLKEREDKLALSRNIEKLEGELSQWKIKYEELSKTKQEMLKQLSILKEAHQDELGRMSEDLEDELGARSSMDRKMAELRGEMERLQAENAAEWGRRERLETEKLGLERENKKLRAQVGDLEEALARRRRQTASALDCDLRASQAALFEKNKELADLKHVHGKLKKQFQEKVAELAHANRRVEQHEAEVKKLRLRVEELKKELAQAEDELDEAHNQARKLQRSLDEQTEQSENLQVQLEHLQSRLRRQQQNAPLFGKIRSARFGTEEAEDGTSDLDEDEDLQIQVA
UniProt Q9NQ75: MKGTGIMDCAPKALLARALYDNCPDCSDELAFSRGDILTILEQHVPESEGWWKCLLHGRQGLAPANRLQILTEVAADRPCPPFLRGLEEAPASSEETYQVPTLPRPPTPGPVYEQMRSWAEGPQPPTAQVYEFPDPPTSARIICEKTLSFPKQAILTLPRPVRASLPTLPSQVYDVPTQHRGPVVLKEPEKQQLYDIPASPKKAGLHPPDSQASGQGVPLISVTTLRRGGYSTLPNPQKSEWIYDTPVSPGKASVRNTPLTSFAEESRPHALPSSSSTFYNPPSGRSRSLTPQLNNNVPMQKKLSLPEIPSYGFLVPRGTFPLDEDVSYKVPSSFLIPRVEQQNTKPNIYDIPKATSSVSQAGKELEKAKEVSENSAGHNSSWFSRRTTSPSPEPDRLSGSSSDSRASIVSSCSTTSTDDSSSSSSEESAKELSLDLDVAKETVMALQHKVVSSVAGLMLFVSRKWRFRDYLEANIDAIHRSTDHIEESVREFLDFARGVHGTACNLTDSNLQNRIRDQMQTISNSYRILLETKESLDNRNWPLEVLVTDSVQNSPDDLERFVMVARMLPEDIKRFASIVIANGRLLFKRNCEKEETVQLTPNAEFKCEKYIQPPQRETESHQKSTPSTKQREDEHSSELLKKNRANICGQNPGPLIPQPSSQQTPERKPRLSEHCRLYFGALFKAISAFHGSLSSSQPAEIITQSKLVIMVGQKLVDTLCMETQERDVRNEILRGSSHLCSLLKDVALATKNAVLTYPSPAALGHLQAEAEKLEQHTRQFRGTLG
UniProt Q96BQ5: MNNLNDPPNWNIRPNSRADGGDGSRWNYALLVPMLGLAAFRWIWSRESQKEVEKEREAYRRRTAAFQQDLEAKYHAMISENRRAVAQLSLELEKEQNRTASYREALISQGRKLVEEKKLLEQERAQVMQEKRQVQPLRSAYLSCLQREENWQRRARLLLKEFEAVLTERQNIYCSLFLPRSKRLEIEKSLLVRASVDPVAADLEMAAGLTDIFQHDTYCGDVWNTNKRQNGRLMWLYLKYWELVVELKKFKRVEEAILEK
UniProt Q75N03: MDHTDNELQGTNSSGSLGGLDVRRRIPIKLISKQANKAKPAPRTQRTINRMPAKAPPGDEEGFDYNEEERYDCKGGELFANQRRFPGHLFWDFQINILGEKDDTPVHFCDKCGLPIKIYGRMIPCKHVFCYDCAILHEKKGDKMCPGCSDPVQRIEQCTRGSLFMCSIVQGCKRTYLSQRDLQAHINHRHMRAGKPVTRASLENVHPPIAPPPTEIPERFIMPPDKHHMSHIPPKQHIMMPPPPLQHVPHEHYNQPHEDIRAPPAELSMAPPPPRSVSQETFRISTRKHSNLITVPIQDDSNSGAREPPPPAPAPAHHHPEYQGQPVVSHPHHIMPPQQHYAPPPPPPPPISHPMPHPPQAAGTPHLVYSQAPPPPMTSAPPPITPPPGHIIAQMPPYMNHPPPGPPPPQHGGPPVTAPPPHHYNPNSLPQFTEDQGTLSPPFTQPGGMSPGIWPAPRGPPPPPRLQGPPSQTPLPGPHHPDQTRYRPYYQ
UniProt Q8TD31: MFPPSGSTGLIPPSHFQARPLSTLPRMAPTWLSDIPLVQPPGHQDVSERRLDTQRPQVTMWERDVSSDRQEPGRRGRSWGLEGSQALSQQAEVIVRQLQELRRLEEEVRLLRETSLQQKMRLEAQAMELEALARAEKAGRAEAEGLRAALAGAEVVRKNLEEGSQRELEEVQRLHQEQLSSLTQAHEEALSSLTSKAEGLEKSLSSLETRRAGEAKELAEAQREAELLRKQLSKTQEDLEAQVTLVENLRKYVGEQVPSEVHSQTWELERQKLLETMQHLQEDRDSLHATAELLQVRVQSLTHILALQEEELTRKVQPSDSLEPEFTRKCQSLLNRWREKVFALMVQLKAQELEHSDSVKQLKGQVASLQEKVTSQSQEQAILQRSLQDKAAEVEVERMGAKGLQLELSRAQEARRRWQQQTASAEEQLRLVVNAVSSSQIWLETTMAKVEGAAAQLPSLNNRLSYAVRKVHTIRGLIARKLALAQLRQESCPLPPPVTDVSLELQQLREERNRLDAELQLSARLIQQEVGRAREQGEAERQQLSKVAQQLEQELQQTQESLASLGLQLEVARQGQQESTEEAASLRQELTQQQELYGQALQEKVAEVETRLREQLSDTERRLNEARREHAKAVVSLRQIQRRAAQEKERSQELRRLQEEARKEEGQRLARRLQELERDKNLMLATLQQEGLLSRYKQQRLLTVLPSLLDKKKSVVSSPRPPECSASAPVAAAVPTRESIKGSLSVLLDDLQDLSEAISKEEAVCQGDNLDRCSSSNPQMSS
UniProt Q2TAC2: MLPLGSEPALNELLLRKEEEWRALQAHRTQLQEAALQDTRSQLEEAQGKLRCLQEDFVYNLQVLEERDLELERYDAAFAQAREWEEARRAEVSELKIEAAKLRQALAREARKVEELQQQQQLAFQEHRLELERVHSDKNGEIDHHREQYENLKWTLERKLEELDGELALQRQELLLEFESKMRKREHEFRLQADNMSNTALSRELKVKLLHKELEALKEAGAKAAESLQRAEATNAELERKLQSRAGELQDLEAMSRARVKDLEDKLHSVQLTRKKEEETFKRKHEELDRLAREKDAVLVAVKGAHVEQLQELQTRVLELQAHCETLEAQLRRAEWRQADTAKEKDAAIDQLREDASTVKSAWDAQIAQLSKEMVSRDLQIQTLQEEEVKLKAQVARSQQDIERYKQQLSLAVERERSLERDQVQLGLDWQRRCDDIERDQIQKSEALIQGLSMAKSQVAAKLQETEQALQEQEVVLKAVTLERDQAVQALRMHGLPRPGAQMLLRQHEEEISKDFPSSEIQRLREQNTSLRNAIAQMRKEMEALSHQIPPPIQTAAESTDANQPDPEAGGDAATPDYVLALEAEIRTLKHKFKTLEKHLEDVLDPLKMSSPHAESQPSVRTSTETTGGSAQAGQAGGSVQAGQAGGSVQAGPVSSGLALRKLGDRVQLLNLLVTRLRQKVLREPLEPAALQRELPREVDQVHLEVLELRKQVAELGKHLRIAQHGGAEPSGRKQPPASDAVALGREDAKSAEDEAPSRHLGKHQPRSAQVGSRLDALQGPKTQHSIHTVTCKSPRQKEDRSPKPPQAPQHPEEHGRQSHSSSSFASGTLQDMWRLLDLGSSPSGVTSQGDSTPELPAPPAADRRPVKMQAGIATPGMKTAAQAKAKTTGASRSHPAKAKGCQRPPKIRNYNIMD
UniProt P24864, whole entry, looked up: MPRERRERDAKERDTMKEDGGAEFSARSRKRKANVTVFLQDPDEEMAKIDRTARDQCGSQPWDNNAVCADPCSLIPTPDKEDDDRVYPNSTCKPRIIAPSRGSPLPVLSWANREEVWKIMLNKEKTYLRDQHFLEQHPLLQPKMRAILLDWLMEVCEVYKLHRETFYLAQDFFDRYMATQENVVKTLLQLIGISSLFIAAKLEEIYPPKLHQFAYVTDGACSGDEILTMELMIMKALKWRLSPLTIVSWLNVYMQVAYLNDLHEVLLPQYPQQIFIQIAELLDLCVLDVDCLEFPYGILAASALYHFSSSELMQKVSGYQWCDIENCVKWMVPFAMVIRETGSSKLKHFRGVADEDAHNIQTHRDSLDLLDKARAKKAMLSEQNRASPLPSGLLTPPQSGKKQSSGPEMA
UniProt A6NKD9: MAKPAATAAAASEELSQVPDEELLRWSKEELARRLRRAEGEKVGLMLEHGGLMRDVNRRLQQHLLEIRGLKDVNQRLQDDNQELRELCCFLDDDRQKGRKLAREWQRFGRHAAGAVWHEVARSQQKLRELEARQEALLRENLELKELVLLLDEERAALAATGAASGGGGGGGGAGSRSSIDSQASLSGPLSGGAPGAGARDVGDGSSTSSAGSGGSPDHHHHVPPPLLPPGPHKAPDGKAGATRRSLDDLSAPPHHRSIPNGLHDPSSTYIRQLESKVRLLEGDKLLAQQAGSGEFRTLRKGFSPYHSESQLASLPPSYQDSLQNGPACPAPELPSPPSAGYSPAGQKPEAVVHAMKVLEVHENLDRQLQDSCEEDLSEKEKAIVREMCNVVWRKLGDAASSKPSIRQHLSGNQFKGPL

Assays:
Experiment in all cases: log2 fold change, soluble protein after heating vs DMSO (PISA); higher = thermal stabilisation; K562 lysate, 10 uM; active = over 0.2 and 3.5 SD of the protein, either way, in both replicates (recomputed)
vemurafenib = compound: CCCS(=O)(=O)Nc1ccc(F)c(C(=O)c2c[nH]c3ncc(-c4ccc(Cl)cc4)cc23)c1F [vemurafenib]
How it was run: (§1)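 K562 pellets were dounce-homogenised in PBS pH 7.4 with 1 mM MgCl2, and the crude extract at 1 mg/mL protein was treated with 10 μM compound for 30 min. Aliquots were heated for 3 min across 48°C-58°C, pooled, and brought to 0.5% NP-40 at 4°C; soluble protein was the supernatant after 21,000xg for 90 min. Soluble protein was quantified by TMTpro 16plex LC-MS/MS with channel sums equalised, and reported as log2 fold change in thermal stability against DMSO controls, with values from duplicates.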

[1] = compound: CCCS(=O)(=O)Nc1ccc(F)c(C(=O)c2c[nH]c3ncc(Cl)cc23)c1F
How it was run: as §1

barasertib = compound: CCN(CCCOc1ccc2c(Nc3cc(CC(=O)Nc4cccc(F)c4)[nH]n3)ncnc2c1)CCOP(=O)(O)O [barasertib]
How it was run: as §1

[2] = compound: CC[C@@H]1C(=O)N(C)c2cnc(Nc3ccc(C(=O)NC4CCN(C)CC4)cc3OC)nc2N1C1CCCC1
How it was run: as §1

volasertib = compound: CC[C@@H]1C(=O)N(C)c2cnc(Nc3ccc(C(=O)N[C@H]4CC[C@H](N5CCN(CC6CC6)CC5)CC4)cc3OC)nc2N1C(C)C [volasertib]
How it was run: as §1

[3] = compound: CCn1c(C(=O)N(C2CC2)C2CC2)cc2c3c(ncn3C)c(Nc3cc(C)n(C)n3)nc21
How it was run: as §1

[4] = compound: CCn1cc(-c2ccnc3[nH]c(-c4cccc(CN(C)C)c4)cc23)c(-c2ccc(NC(=O)N(C)C)cc2)n1
How it was run: as §1

[5] = compound: CN1CCC(CNc2ccc3ncc(-c4cccc(OC(F)(F)F)c4)n3n2)CC1
How it was run: as §1

saracatinib = compound: CN1CCN(CCOc2cc(OC3CCOCC3)c3c(Nc4c(Cl)ccc5c4OCO5)ncnc3c2)CC1 [saracatinib]
How it was run: as §1

sotrastaurin = compound: CN1CCN(c2nc(C3=C(c4c[nH]c5ccccc45)C(=O)NC3=O)c3ccccc3n2)CC1 [sotrastaurin]
How it was run: as §1

alvocidib = compound: CN1CC[C@H](c2c(O)cc(O)c3c(=O)cc(-c4ccccc4Cl)oc23)[C@H](O)C1 [alvocidib]
How it was run: as §1

Tubastatin A = compound: CN1CCc2c(c3ccccc3n2Cc2ccc(C(=O)NO)cc2)C1 [Tubastatin A]
How it was run: as §1

[6] = compound: CNC(=O)C1=CC=CC=C1NC2=NC(=NC=C2Cl)NC3=C(C=C(C=C3)N4CCOCC4)OC
How it was run: as §1

defactinib = compound: CNC(=O)c1ccc(Nc2ncc(C(F)(F)F)c(NCc3nccnc3N(C)S(C)(=O)=O)n2)cc1 [defactinib]
How it was run: as §1

[7] = compound: CNc1nc(-c2ccc3c(N)n[nH]c3c2)cc(N2C[C@@H](C(=O)NC3CCCCC3)CC[C@H]2C)n1
How it was run: as §1

encorafenib = compound: COC(=O)N[C@@H](C)CNc1nccc(-c2cn(C(C)C)nc2-c2cc(Cl)cc(NS(C)(=O)=O)c2F)n1 [encorafenib]
How it was run: as §1

[8] = compound: COC(=O)[C@H](CCSC)NC(=O)C1=C(C=C(C=C1)NC[C@H](CS)N)C2=CC=CC=C2
How it was run: as §1

alisertib = compound: COc1cc(Nc2ncc3c(n2)-c2ccc(Cl)cc2C(c2c(F)cccc2OC)=NC3)ccc1C(=O)O [alisertib]
How it was run: as §1

[9] = compound: COc1cc2nc(-c3cc(F)ccc3O)nc(N[C@@H]3CNC[C@H]3C(C)(C)O)c2cc1OC
How it was run: as §1

gefitinib = compound: COc1cc2ncnc(Nc3ccc(F)c(Cl)c3)c2cc1OCCCN1CCOCC1 [gefitinib]
How it was run: as §1

Measured: log2 fold change

CCPG1 isoform 5 (UniProt Q9ULG6)
inactive: vemurafenib 0.082 | [1] -0.038 | barasertib 0.034 | [2] 0.066 | volasertib 0 | [3] 0.071 | [4] -0.081 | [5] 0.04 | saracatinib 0.049 | sotrastaurin 0.051 | alvocidib 0.029 | Tubastatin A 0.006 | [6] 0.028 | defactinib -0.03 | [7] -0.02 | encorafenib 0.049 | [8] -0.165 | alisertib -0.073 | gefitinib -0.061
active: [9] 0.303

CCDC134 (UniProt Q9H6E4)
inactive: vemurafenib 0.013 | [1] 0.001 | barasertib -0.131 | [2] 0.104 | volasertib -0.017 | [3] 0.017 | [4] 0.004 | [5] -0.017 | saracatinib 0.02 | sotrastaurin 0 | alvocidib -0.001 | Tubastatin A 0.03 | [6] -0.001 | defactinib 0.019 | [7] -0.023 | encorafenib 0.033 | [8] -0.056 | alisertib 0.016 | [9] -0.001 | gefitinib 0.022

CCDC86 (UniProt Q9H6F5)
inactive: vemurafenib -0.005 | [1] 0.01 | barasertib 0.009 | [2] 0.069 | volasertib -0.016 | [3] -0.03 | [4] -0.022 | [5] 0.021 | saracatinib 0.068 | sotrastaurin -0.014 | alvocidib -0.084 | Tubastatin A 0.109 | [6] 0.011 | defactinib -0.004 | [7] 0.033 | encorafenib -0.021 | [8] -0.013 | alisertib -0.007 | [9] -0.007 | gefitinib -0.016

CCDC124 (UniProt Q96CT7)
inactive: vemurafenib -0.065 | [1] -0.012 | barasertib -0.032 | [2] 0.006 | volasertib 0.017 | [3] 0.018 | [4] 0.111 | [5] -0.009 | saracatinib -0.011 | sotrastaurin 0.011 | alvocidib 0.029 | Tubastatin A 0.024 | [6] 0.004 | defactinib 0.025 | [7] 0.015 | encorafenib 0.038 | [8] -0.05 | alisertib -0.014 | [9] 0.001 | gefitinib -0.011

CCNT2 (UniProt O60583)
inactive: vemurafenib -0.082 | [1] 0.124 | barasertib -0.008 | [2] 0.05 | volasertib -0.128 | [3] 0.176 | saracatinib 0.049 | sotrastaurin -0.191 | Tubastatin A -0.115 | defactinib 0.034 | [7] 0.018 | encorafenib -0.027 | [8] -0.033 | alisertib 0.112 | [9] -0.051 | gefitinib -0.111

CCDC85B (UniProt Q15834)
inactive: vemurafenib -0.317 | [1] 0.04 | barasertib -0.047 | [2] 0.086 | volasertib 0.345 | [3] 0.007 | [4] 0.126 | [5] -0.01 | saracatinib 0.163 | sotrastaurin -0.035 | alvocidib 0.016 | Tubastatin A 0.016 | [6] 0.217 | defactinib 0.183 | [7] -0.08 | encorafenib 0.255 | [8] -0.481
active: [9] -0.508

CCDC102A (UniProt Q96A19)
inactive: vemurafenib -0.184 | barasertib 0.108 | [2] 0.079 | sotrastaurin 0.019 | [6] -0.019 | defactinib 0.047 | encorafenib -0.243 | [8] 0.057

CASS4 (UniProt Q9NQ75)
inactive: vemurafenib 0.118 | [2] 0.052 | [3] 0.023 | [4] 0.084 | [5] 0.097 | saracatinib 0.073 | sotrastaurin -0.099 | alvocidib -0.045 | Tubastatin A -0.069 | [6] -0.046 | defactinib -0.025 | [7] 0.085 | encorafenib -0.186 | [8] -0.077 | alisertib 0.029 | gefitinib -0.086

CASK (UniProt O14936)
inactive: vemurafenib -0.006 | [1] 0.058 | barasertib 0.033 | [2] 0.083 | volasertib 0.026 | [3] -0.006 | [4] 0.113 | [5] -0.008 | saracatinib -0.043 | sotrastaurin 0.016 | alvocidib 0.093 | Tubastatin A 0.007 | [6] -0.059 | defactinib 0.043 | [7] -0.222 | encorafenib 0.006 | [8] -0.049 | [9] 0.022

CCDC127 (UniProt Q96BQ5)
inactive: [1] -0.002 | barasertib 0.058 | [2] -0.109 | volasertib -0.025 | [3] 0.034 | [4] -0.143 | [5] 0.121 | saracatinib 0.035 | sotrastaurin 0.026 | alvocidib -0.001 | Tubastatin A 0.026 | [6] 0.008 | [7] 0.006 | encorafenib 0.082 | [8] -0.143 | [9] 0.04

CCDC9, A0A2R8Y4Z8
inactive: [1] 0.072 | barasertib 0.064 | volasertib 0.011 | [3] 0.022 | saracatinib -0.127 | sotrastaurin -0.099 | Tubastatin A 0.197 | [7] 0.098 | [9] -0.107

CCDC175 (UniProt P0C221)
inactive: vemurafenib 0.205 | [1] 0.105 | [2] 0.357 | volasertib 0.006 | [4] -0.424 | [5] 0.255 | alvocidib -0.135 | defactinib -0.198 | encorafenib -0.114 | [8] 0.08 | [9] 0.151

CBLL1 (UniProt Q75N03)
inactive: vemurafenib 0.014 | [1] 0.054 | [2] 0.05 | volasertib -0.041 | [3] -0.006 | [4] 0.076 | [5] 0.086 | saracatinib 0.084 | sotrastaurin -0.084 | alvocidib 0.029 | Tubastatin A -0.005 | [6] 0.036 | defactinib 0.047 | [7] 0.029 | encorafenib -0.036 | [8] 0.016 | alisertib 0.075 | [9] 0.034 | gefitinib -0.093

2 neighbouring records out of the list so far, for reference:
CCDC9, A0A2R8Y4Z8
inactive: [1] 0.072 | barasertib 0.064 | volasertib 0.011 | [3] 0.022 | saracatinib -0.127 | sotrastaurin -0.099 | Tubastatin A 0.197 | [7] 0.098 | [9] -0.107

CCDC175 (UniProt P0C221)
inactive: vemurafenib 0.205 | [1] 0.105 | [2] 0.357 | volasertib 0.006 | [4] -0.424 | [5] 0.255 | alvocidib -0.135 | defactinib -0.198 | encorafenib -0.114 | [8] 0.08 | [9] 0.151

(listing goes on)

CCHCR1 isoform 2 (UniProt Q8TD31)
inactive: vemurafenib -0.017 | barasertib -0.017 | [2] -0.079 | [4] -0.044 | [5] 0.031 | sotrastaurin 0.008 | alvocidib 0.068 | [6] 0.106 | defactinib -0.007 | encorafenib 0.056 | [8] -0.111 | alisertib 0.173 | gefitinib 0.203

CCDC57 (UniProt Q2TAC2)
inactive: vemurafenib 0.01 | [1] -0.028 | barasertib 0.058 | [2] -0.1 | volasertib 0.016 | [3] -0.028 | [4] -0.056 | [5] 0.041 | saracatinib -0.059 | alvocidib -0.04 | Tubastatin A 0.041 | defactinib -0.057 | [7] 0.076 | encorafenib 0.065 | [8] -0.056 | alisertib -0.008 | [9] 0.026 | gefitinib -0.028

CCT3 (UniProt E9PM09)
inactive: vemurafenib 0.225 | [1] -0.166 | barasertib 0.08 | [2] 0.051 | volasertib 0.054 | [3] 0.092 | saracatinib -0.124 | Tubastatin A 0.034 | [6] 0.121 | defactinib -0.197 | [7] 0.055 | encorafenib -0.125 | [8] -0.153 | alisertib -0.011 | [9] 0.071 | gefitinib 0.041

CCNE1 (UniProt P24864)
inactive: vemurafenib -0.018 | [1] 0.037 | barasertib -0.02 | [2] 0.211 | volasertib 0.004 | [3] 0.004 | [4] -0.055 | [5] 0.06 | saracatinib 0.021 | sotrastaurin -0.15 | alvocidib 0.04 | Tubastatin A -0.023 | defactinib -0.04 | [7] 0.104 | encorafenib 0 | [8] -0.079 | [9] 0.027

CCDC85C (UniProt A6NKD9)
inactive: vemurafenib -0.039 | [1] -0.025 | barasertib 0.008 | [2] -0.054 | volasertib -0.004 | [4] -0.108 | [5] 0.072 | saracatinib 0.012 | sotrastaurin 0.014 | alvocidib 0 | defactinib -0.003 | [7] 0.036 | encorafenib -0.053 | [8] -0.103 | alisertib -0.039 | [9] -0.08 | gefitinib -0.089
